PubChem BioAssay AID1259425, University of Nebraska Medical Center – 2018

Aim: 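Compare each knockdown with KSR1 silencing using changes in marker transcripts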 (primary screen)
Cells: HCT116 human colon cancer cells
Knock-down reagent: siRNA pool against human genes, 50 nM siRNA
Detection: 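mRNA of six signature genes measured together by branched-DNA assay after 50 nM siRNA pool, blank removed, divided by geometric mean of two housekeeping genes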
Reading the numbers: BNIP3L mRNA: higher = more BNIP3L transcript after knockdown; NDRG1 mRNA: higher = more NDRG1 transcript after knockdown; BNIP3 mRNA: higher = more BNIP3 transcript after knockdown; ALDOC mRNA: higher = more ALDOC transcript after knockdown; ACSL5 mRNA: higher = more ACSL5 transcript after knockdown
Shown is one part, drawn at random, of about 14,000 reagents tested. The record does not give: the time to read-out.

no.	Target gene	BNIP3L mRNA, set 1	NDRG1 mRNA, set 1	BNIP3 mRNA, set 1	ALDOC mRNA, set 1	ACSL5 mRNA, set 1
1	DUSP21 (dual specificity phosphatase 21)	0.0779	0.0721	0.255	0.0325	0.242
2	HSFY2 (heat shock transcription factor Y-linked 2)	0.0848	0.209	0.208	0.0239	0.0832
3	CWC15 (CWC15 spliceosome associated protein)	0.0854	0.465	0.36	0.0594	0.175
4	CNGA4 (cyclic nucleotide gated channel subunit alpha 4)	0.128	0.575	0.225	0.0513	0.0552
5	PCNX2 (pecanex 2)	0.0904	0.396	0.425	0.0436	0.368
6	PCDH9 (protocadherin 9)	0.0873	0.787	0.323	0.0264	0.106
7	PGA5 (pepsinogen A5)	0.218	0.422	0.272	0.0422	0.163
8	NAGPA	0.0923	0.0922	0.269	0.0307	0.142
9	DENND2B (DENN domain containing 2B)	0.123	0.116	0.265	0.0241	0.0901
10	CGB5 (chorionic gonadotropin subunit beta 5)	0.118	0.188	0.21	0.0246	0.272
11	MAGEC2 (MAGE family member C2)	0.086	0.204	0.237	0.00808	0.172
12	LAIR2 (leukocyte associated immunoglobulin like receptor 2)	0.17	0.126	0.364	0.0422	0.157
13	PIR (pirin)	0.0787	0.132	0.261	0.0176	0.159
14	PCDH18 (protocadherin 18)	0.149	0.106	0.277	0.0431	0.108

Taken from above:
Under “BNIP3 mRNA, set 1”, HSFY2 (heat shock transcription factor Y-linked 2) has 0.208
For “ALDOC mRNA, set 1”, PIR (pirin) shows 0.0176
Result for PCDH18 (protocadherin 18) in “BNIP3 mRNA, set 1”: 0.277

Continued.
no.	Target gene	BNIP3L mRNA, set 1	NDRG1 mRNA, set 1	BNIP3 mRNA, set 1	ALDOC mRNA, set 1	ACSL5 mRNA, set 1
15	CRADD (CARD and death domain containing adaptor protein)	0.175	0.108	0.296	0.0217	0.087
16	VN1R2 (vomeronasal 1 receptor 2)	0.141	0.128	0.246	0.0407	0.152
17	RXYLT1 (ribitol xylosyltransferase 1)	0.109	0.162	0.354	0.0155	0.264
18	NAMPT (nicotinamide phosphoribosyltransferase)	0.0748	0.191	0.263	0.031	0.0706
19	NSMAF (neutral sphingomyelinase activation associated factor)	0.0733	0.091	0.285	0.0187	0.0918
20	CFHR4 (complement factor H related 4)	0.114	0.204	0.376	0.0312	0.2
21	USP35 (ubiquitin specific peptidase 35)	0.0732	0.0863	0.167	0.0166	0.137
22	CLTC (clathrin heavy chain)	0.373	0.462	0.458	0.0352	0.0816
23	MTUS1 (microtubule associated scaffold protein 1)	0.0733	0.251	0.361	0.044	0.351
24	SIDT1 (SID1 transmembrane family member 1)	0.133	0.141	0.314	0.0255	0.109
25	SNIP1 (Smad nuclear interacting protein 1)	0.148	0.109	0.405	0.0237	0.165
26	SHCBP1 (SHC binding and spindle associated 1)	0.146	0.225	0.272	0.123	0.223
27	EEF1E1 (eukaryotic translation elongation factor 1 epsilon 1)	0.187	0.207	0.128	0.042	0.167
28	NXF2 (nuclear RNA export factor 2)	0.139	0.162	0.378	0.0886	0.267
29	LY6G5C (lymphocyte antigen 6 family member G5C)	0.189	0.135	0.426	0.043	0.225
30	IER3 (immediate early response 3)	0.191	0.169	0.412	0.0503	0.221
31	NDUFA12 (NADH:ubiquinone oxidoreductase subunit A12)	0.0856	0.0546	0.328	0.0387	0.0878
32	SYN3 (synapsin III)	0.0551	0.077	0.223	0.00864	0.121
33	ADORA2A (adenosine A2a receptor)	0.137	0.297	0.291	0.0658	0.171
34	GTF2F2 (general transcription factor IIF subunit 2)	0.0664	0.14	0.252	0.02	0.168
